Consider one substance from PMC4705380.

Chains of the proteins cited; added tags and fusions are not shown. Lines headed by an entry give the natural chain unless they say otherwise; changes in a name come on top. Residues count along the entry.
UniProt P20151, residues 25-261: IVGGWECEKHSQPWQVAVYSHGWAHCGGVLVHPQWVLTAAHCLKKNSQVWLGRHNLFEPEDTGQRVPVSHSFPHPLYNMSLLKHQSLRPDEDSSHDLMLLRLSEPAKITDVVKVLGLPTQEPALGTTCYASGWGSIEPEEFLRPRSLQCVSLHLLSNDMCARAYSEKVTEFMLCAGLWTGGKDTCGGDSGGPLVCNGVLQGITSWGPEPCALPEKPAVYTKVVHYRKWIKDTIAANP

These are yes or no findings as the source states them, for the method shown.

For this assay, the target named is mature human kallikrein-related peptidase 2 (KLK2), glycosylated, from Leishmania expression (LEXSY) (human) (UniProt P20151). Put plainly: SEC; gel filtration of enterokinase-activated mature KLK2; Superdex 75 column (results); methods name a Superose 6 10/300 GL column, 5 mM Tris-HCl pH 8.0, 50 mM NaCl; both purified.

As for “mature human kallikrein-related peptidase 2 (KLK2), glycosylated, from Leishmania expression (LEXSY) (from UniProt P20151-1 25-261) (enzyme)”, the binding entry is reported as “no binding”.
